In PubChem BioAssay AID504834 (National Center for Advancing Translational Sciences (NCATS), 2011):
Hit rate of the full screen: of about 320,000 compounds, about 22,000 (6.9%) were called active. This list was built around the results that the source calls inconclusive (neither active nor inactive); the mix of calls is not that of the screen. Calls follow the shape of the dose curve; as a rule, active = well fitted inhibition curve with a large enough effect; inconclusive = small, poorly fitted or top-dose-only effect, or another doubt; inactive = no such curve, though single readings can be large or run the other way. Where the call is inconclusive, the potency comes from a doubtful curve fit.

Test: Primary qHTS for delayed death inhibitors of the malarial parasite plastid, 96 hour incubation
Conditions: P. falciparum luciferase reporter growth; series mostly up to 28.7 µM; activity change, negative = inhibition: at the top concentration
Outline: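 Cell-based qHTS: luciferase-tagged P. falciparum in erythrocytes (2% hematocrit, 0.05% parasitemia final) incubated with compounds for 96 hours, 37 C, 5% CO2; luciferase detection reagent then added and luminescence measured.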
% is scaled to controls: 0 for no effect and ±100 for the full control effect; potency is read from the fitted curve at half-maximal effect.

| Compound | Potency | activity change, negative = inhibition |
| --- | --- | --- |
| O=C(c1ccccc1)N1CCN(Cc2ccccc2)CC1 | active: 7.38 µM |  |
| OCCNCCCCOc1ccc(OCc2ccccc2)cc1 |  | inactive: 29% |
| Cc1nc2ccc(NC(=O)NC(=O)c3c(Cl)cccc3Cl)cc2o1 | inconclusive: 18.5 µM [inhibitor, single point] |  |
| O=C(NCc1cc([N+](=O)[O-])ccc1O)c1cccnc1Sc1ccccc1 | active: 11.7 µM |  |
| O=C(Nc1cccc(-c2cn3ccccc3n2)c1)c1cnccn1 |  | inactive: 14.2% |
| O=C1NC(=S)N/C1=C/c1cccc([N+](=O)[O-])c1 | inconclusive: 11.7 µM [inhibitor, single point] |  |
| CC(=O)Oc1c(C)cc(O)c2ccccc12 | inconclusive: 7.38 µM [inhibitor, single point] |  |
| COc1ccccc1-c1oc2ccccc2c1C#CCCO | inconclusive: 13.1 µM [inhibitor, single point] |  |
| CC(C)OC(=O)Cn1nc(C(F)(F)F)c2c1CCCC2 | inconclusive: 0.0023 µM [inhibitor, full curve, poor fit] |  |
| Cc1c(C)c2c(OCC(=O)NCc3cccnc3)cc3c(c2oc1=O)CCC(C)(C)O3 | inconclusive: 13.1 µM [inhibitor, partial curve, poor fit] |  |
| Cc1cc(NCCN)nc2ccccc12 | inconclusive: 18.5 µM [inhibitor, single point] |  |
| CN(C)CCN(Cc1ccco1)S(=O)(=O)c1csc(C(N)=O)c1 | active: 8.28 µM |  |
| CN(C)C(=S)NC(=O)c1cccc(Cl)c1 |  | inactive: -7.89% |
| COc1ccccc1CNC(=O)C(C)n1nc(C)c2c(C)n(-c3ccccc3)nc2c1=O (centres undefined) | inconclusive: 18.5 µM [inhibitor, single point] |  |
| O=C(/C(=C/c1cccnc1)n1ccnc1)c1ccc(Cl)cc1Cl | inconclusive: 4.65 µM [inhibitor, partial curve, poor fit] |  |
| CCOc1ccc(CCNC(=O)COC(=O)C2CCN(c3ccc(C(F)(F)F)cn3)CC2)cc1OCC |  | inactive: -3.1% |
| CCOC(=O)C1=C(C)N(c2ccc(OC)cc2)C(=O)/C1=C\c1cccs1 |  | inactive: 23.2% |
| COc1ccc(Nc2cc(C)nc(NCc3ccccc3)n2)cc1 | active: 1.65 µM |  |
| Cc1cc(CNC(=O)c2cc(COc3c(F)cccc3F)on2)nn1C | inconclusive: 11.7 µM [inhibitor, single point] |  |
| O=C(NCc1ccc2c(c1)OCO2)C1CCN(S(=O)(=O)c2cccs2)CC1 | inconclusive: 2.33 µM [inhibitor, single point] |  |
| CCC(C)(C)c1nnc(NC(=O)C2CCN(C(=O)c3ccco3)CC2)s1 | inconclusive: 13.1 µM [inhibitor, single point] |  |
| COc1ccc(N2CCN(C(=O)c3ccc4c(=O)n(CC5CCCO5)c(=O)[nH]c4c3)CC2)cc1 (centres undefined) | inconclusive: 20.8 µM [inhibitor, partial curve, poor fit] |  |

| Compound | Potency | activity change, negative = inhibition |
| --- | --- | --- |
| CCOC(=O)COc1coc(CN2CCN(c3ccc(F)cc3)CC2)cc1=O | inconclusive: 18.5 µM [inhibitor, partial curve, poor fit] |  |
| O=C1c2ccccc2C(=O)C12OC(c1ccccc1)C1(C(=O)c3ccccc3C1=O)C2c1cccc([N+](=O)[O-])c1 (centres undefined) | inconclusive: 20.8 µM [inhibitor, partial curve, poor fit] |  |
| COC(=O)c1ccc(CSc2n[nH]c(-c3ccccc3)n2)o1 |  | inactive: -1.17% |
| COc1cc(/C=C2\SC(=Nc3ccc(O)cc3)NC2=O)cc(OC)c1OC | inconclusive: 3.29 µM [inhibitor, full curve] |  |
| Cc1ccc(C(=O)c2c3ccc([N+](=O)[O-])cc3[n+]([O-])n2CCCC(N)=O)cc1 | inconclusive: 18.5 µM [inhibitor, single point] |  |
| O=C(CN1C(=O)CCSc2ccc(S(=O)(=O)N3CCCC3)cc21)NCc1ccccc1Cl | inconclusive: 11.7 µM [inhibitor, single point] |  |
| O=C(NCc1ccc(F)cc1)C1CCN(S(=O)(=O)c2ccc(Cl)cc2)CC1 |  | inactive: -22.7% |
| Cc1ccccc1N1CCN(C2CCCN(C(=O)c3ccsc3)C2)CC1 (centres undefined) | inconclusive: 18.5 µM [inhibitor, single point] |  |
| O=C(Oc1ccc(C(=S)N2CCOCC2)cc1)c1ccc(F)cc1 | inconclusive: 13.1 µM [inhibitor, single point] |  |
| O=C(Cc1ccccc1)OCCN1CCOCC1 | inconclusive: 10.4 µM [inhibitor, partial curve, poor fit] |  |
| CCCCN1C(=O)NC2NC(=O)NC21 (centres undefined) |  | inactive: -20.7% |
| Cc1ccc(S(=O)(=O)Nc2c(C)n(C)n(-c3ccccc3)c2=O)cc1C(=O)OC(C)C(=O)N(C)c1ccccc1 (centres undefined) | active: 14.7 µM |  |
| Cc1ccc(SCC(=O)NN=C2CCN(C)CC2)cc1 | inconclusive: 11.7 µM [inhibitor, partial curve, poor fit] |  |
| COC(=O)/C=C/C(=O)N1CCN(c2cccc(Cl)c2)CC1 | inconclusive: 14.7 µM [inhibitor, partial curve] |  |
| CSc1cccc(NC(=O)NNC(=O)C2CCN(S(=O)(=O)N(C)C)CC2)c1 |  | inactive: -8.21% |
| Cc1cccc(N(Cc2ccccc2)C(=O)c2cc(S(=O)(=O)N3CCOCC3)ccc2F)c1 | active: 11.7 µM |  |
| COP(=O)(NS(=O)(=O)c1ccccc1)OC | active: 5.22 µM |  |
| COc1ccc(N(C(C)C(=O)N(C)Cc2ccccc2)S(C)(=O)=O)cc1 (centres undefined) | inconclusive: 18.5 µM [inhibitor, single point] |  |
| Cc1c(CNCc2cccs2)c(C(=O)O)c(C)n1Cc1ccccc1 | inconclusive: 14.7 µM [inhibitor, single point] |  |
| CCN(CC)C(=O)C1CCCN(C/C(C)=C/c2ccccc2)C1 (centres undefined) | inconclusive: 4.65 µM [inhibitor, partial curve, poor fit] |  |
| CCN1C(=O)[C@H]2[C@@H](c3ccc(-c4ccc(F)cc4)c(OC)c3)N[C@@](CC(C)C)(C(=O)OC)[C@H]2C1=O | active: 2.62 µM |  |
| O=C(O[C@H]1CN2CCC1CC2)N1CCc2ccccc2[C@@H]1c1ccccc1 | inconclusive: 15.1 µM [inhibitor, single point] |  |

Full records as entered above.
O=C(O[C@H]1CN2CCC1CC2)N1CCc2ccccc2[C@@H]1c1ccccc1 as listed: Potency: inconclusive: 15.1 µM [inhibitor, single point]
Cc1ccc(S(=O)(=O)Nc2c(C)n(C)n(-c3ccccc3)c2=O)cc1C(=O)OC(C)C(=O)N(C)c1ccccc1 (centres undefined) as listed: Potency: active: 14.7 µM
CCOC(=O)COc1coc(CN2CCN(c3ccc(F)cc3)CC2)cc1=O as listed: Potency: inconclusive: 18.5 µM [inhibitor, partial curve, poor fit]
